No constants are given. Whether binding was seen depends on the method and setting. Some results given as binding are weak or reduced against the parent protein; the word gives no strength.
Key:
[1] = biological target: Sgo2N2 fragment (aa1-206) of Sgo2 (S. pombe) (UniProt O13734); experiment: two-hybrid; Sgo2N2 fragment (aa1-206) tested for dimerization; fusion domains, strain and reporter not told in the text shown
[2] = biological target: Sgo2N2 fragment (aa1-206) of Sgo2 with L63P (S. pombe) (UniProt O13734); experiment: as above

binding [1] | binding [2] | Binder
binds | – | Sgo2N2 fragment (aa1-206) of Sgo2 (domain or fragment, UniProt O13734 1-206) MSKASLSPNVEDLKKKQIRQYKEIIRISKAQSIRIKELQLENERLLSENIDLRTTAINLEEQLETVQNENEENKTKLAALLNRFHEETDNFLSKLSLCQQEIQDTFKPVEANLAYDVDTDSEDLDEESVVKDTEEIIEQAQHDVSLRNLSGIEDENIIDDGETAINEQKKREANVFSDTQSAPQLKSGKALPADFENPYNLSNSKP
– | no binding | Sgo2N2 fragment (aa1-206) of Sgo2 with L63P (domain or fragment, UniProt O13734 1-206) MSKASLSPNVEDLKKKQIRQYKEIIRISKAQSIRIKELQLENERLLSENIDLRTTAINLEEQPETVQNENEENKTKLAALLNRFHEETDNFLSKLSLCQQEIQDTFKPVEANLAYDVDTDSEDLDEESVVKDTEEIIEQAQHDVSLRNLSGIEDENIIDDGETAINEQKKREANVFSDTQSAPQLKSGKALPADFENPYNLSNSKP
